Source: PubChem BioAssay AID1347076 (National Center for Advancing Translational Sciences (NCATS), 2019)
Among all 400,000 compounds or so, about 13,000 (3.2%) were called active. This list was built around the results that the source calls inconclusive (neither active nor inactive); the mix of calls is not that of the screen. The call rests on the fitted dose curve; in most records, active means well fitted cell-killing curve with a large enough effect; inconclusive means small, poorly fitted or top-dose-only effect, or effect the other way; inactive means flat fitted curve, though single readings scatter. Where the call is inconclusive, the potency comes from a doubtful curve fit.

Experiment: qHTS assay for MDR1-selective chemotherapeutics: Primary screen using the drug-selected MDR subline cells KB-V1; further: nearly all actives have a fitted effect of over 60% in size
Conditions: KB-V1 MDR cells viability, CellTiter-Glo, 72 h; activity change, negative = cytotoxicity: at 46.1 µM (top of the series)
Outline: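 In this primary screen, KB-V1 cells overexpressing P-gp are incubated with library compounds (lowest to highest concentration) for 72 h at 37 degrees C before a luminescent ATP viability read.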
On the % scale 0 is the no-effect control and ±100 the full control effect; potency means the concentration at half of the fitted maximal effect.

Structure (SMILES) | Potency | activity change, negative = cytotoxicity
COC(=O)C[C@H]1c2cc(F)ccc2S(=O)(=O)N1C1CC1 | inconclusive: 18.4 µM [cytotoxic, partial curve] | 
CC1Cc2ccccc2N1C(=O)CSc1nc2c(c(=O)n(C)c(=O)n2C)n1Cc1ccc(F)cc1 (configuration not stated) | active: 1.84 µM | 
COc1ccc(-c2c(NC(=O)c3ccco3)oc3c(C)cccc3c2=O)cc1OC |  | inactive: -16.9%
COc1cccc(CN(CC2CCCO2)S(=O)(=O)c2ccc(S(=O)(=O)NCC3CCCO3)cc2)c1OC (configuration not stated) | inconclusive: 9.2 µM [cytotoxic, partial curve] | 
COc1cc(C(=O)NCC2CCCO2)cc(Br)c1OCc1ccccc1 (configuration not stated) | inconclusive: 29.1 µM [cytotoxic, single point] | 
CC(C)CC(=O)Nc1ccc2nn(-c3ccccc3)nc2c1 | active: 16.4 µM | 
O=C(/C=C/c1ccccc1)Nc1cccc(C(=O)NCCc2ccccc2)c1 |  | inactive: -19.5%
O=[N+]([O-])c1cc(CN2CCN(c3cccc(C(F)(F)F)c3)CC2)c2cccnc2c1O | inconclusive: 0.517 µM [cytotoxic, full curve, poor fit] | 
CCOC(=O)C1=C(C)NC(=O)NC1c1ccc(-c2ccc(F)cc2)o1 (configuration not stated) | inconclusive: 18.4 µM [cytotoxic, partial curve, poor fit] | 
CC1CCN(CCCOc2ccc(Br)cc2Cl)CC1 | inconclusive: 18.4 µM [cytotoxic, single point] | 
O=S(=O)(c1cc(C(F)(F)F)ccc1Cl)N1CCN(c2ncnc3ccccc23)CC1 | inconclusive: 1.84 µM [cytotoxic, full curve] | 
NS(=O)(=O)c1ccc(NC(=O)COC(=O)c2cnc(Cl)c(Cl)c2)cc1 | inconclusive: 18.4 µM [rising, single point] | 
COc1ccc(Cl)cc1NC(=O)CN(C)C(=O)c1ccc(N2CCCCC2)c([N+](=O)[O-])c1 | inconclusive: 32.6 µM [cytotoxic, single point] | 
CC(NC(=O)c1cccc(F)c1)C(c1cccs1)N1CCN(C)CC1 (configuration not stated) | inconclusive: 20.6 µM [cytotoxic, partial curve] | 
C[C@H](O)[C@@H]1CN2CCc3c([nH]c4ccc(-c5ccc6c(c5)OCO6)cc34)[C@@H]2C[C@@H]1N(C)C(=O)Nc1cc(Cl)cc(Cl)c1 | inconclusive: 29.1 µM [cytotoxic, single point] | 
Cc1ccc2nc(C3CCCCC3)c(Cc3ccccc3)n2c1 |  | inactive: 5.98%
Cc1cc(=O)n(Cc2ccccc2Cl)c2c1c(C)nn2-c1ccccc1 |  | inactive: 2.26%
Cc1cc(NC(=O)CSc2nc3c([nH]c4ccccc43)c(=O)n2-c2ccc(Cl)cc2)no1 | inconclusive: 32.6 µM [cytotoxic, partial curve, poor fit] | 
COc1ccc(CC(=O)Nc2nnc3n2CCS3)cc1 |  | inactive: 20%
Cc1ccc(-c2nc(CSCC(=O)N3CCN(c4ccccn4)CC3)c(C)o2)cc1 | inconclusive: 20.6 µM [cytotoxic, partial curve] | 
Cn1cc(C(=O)c2ccc(Cl)cc2Cl)cc1C(=O)N/N=C(\N)COc1ccc(F)cc1 | inconclusive: 29.1 µM [cytotoxic, partial curve, poor fit] | 

Single entries from the list:
Under Potency, O=S(=O)(c1cc(C(F)(F)F)ccc1Cl)N1CCN(c2ncnc3ccccc23)CC1 has the entry inconclusive: 1.84 µM [cytotoxic, full curve]
Under Potency, COC(=O)C[C@H]1c2cc(F)ccc2S(=O)(=O)N1C1CC1 has the entry inconclusive: 18.4 µM [cytotoxic, partial curve]

Going on with the list:

Structure (SMILES) | Potency | activity change, negative = cytotoxicity
CCn1c2c(c(=O)n3ncc(C(=O)Nc4ccc(F)cc4Cl)c13)CN(Cc1ccc(OC)cc1)CC2 |  | inactive: 0.618%
CCCCC(=O)NC(=S)Nc1ccccc1C(=O)Nc1ccccc1 | inconclusive: 16.4 µM [cytotoxic, partial curve, poor fit] | 
NC(=O)C1CCN(c2ncc(-c3cccc(F)c3)s2)CC1 | inconclusive: 23.1 µM [rising, partial curve, poor fit] | 
CN(CC(=O)Nc1ccc(F)c(F)c1F)C(=O)CCCSc1nc2ccccc2[nH]1 | inconclusive: 16.4 µM [cytotoxic, single point] | 
CCN(c1ccccc1)S(=O)(=O)c1cc(C(=O)NCc2ccccn2)ccc1C | inconclusive: 8.2 µM [cytotoxic, partial curve, poor fit] | 
CCCCCCCCC(c1nc2cc(C)c(C)cc2[nH]1)n1c(=O)c(-c2ccccc2Br)nc2ccccc21 (configuration not stated) |  | inactive: 0%
COc1cc(C(=O)NCC(=O)N2CCN(S(=O)(=O)c3cc(C)ccc3C)CC2)cc(OC)c1OC | inconclusive: 23.1 µM [cytotoxic, single point] | 
CCOc1cc(-c2c(C)c(C)nc(N)c2C#N)ccc1O |  | inactive: 6.94%
COc1ccc(C(=O)N=c2nc(-c3ccccc3)n(-c3ccccc3)s2)cc1 |  | inactive: 0%
CC1CN(C(=O)CCC(=O)NCCCN2CCC(Cc3ccccc3)CC2)c2cc(Cl)ccc2O1 (configuration not stated) | inconclusive: 29.1 µM [cytotoxic, single point] | 
COc1ccc(C(=O)Nc2nc(CC(=O)NCc3ccc(F)cc3)cs2)cc1 | inconclusive: 29.1 µM [cytotoxic, single point] | 
CSCCC(NS(=O)(=O)c1ccc2c(c1)OCCO2)C(=O)N(C)Cc1ccc(C)cc1 (configuration not stated) | inconclusive: 6.51 µM [cytotoxic, partial curve] | 
O=C(CCCOc1ccccc1)Nc1ccc(Cl)c(S(=O)(=O)N2CCOCC2)c1 | inconclusive: 20.6 µM [cytotoxic, single point] | 
COc1ccc(/C=C2/C(=O)OCc3cc(OC)c(OC)cc32)cc1 | active: 3.66 µM | 
Cc1nc2cc(Cc3ccccc3)ccc2o1 | inconclusive: 29.1 µM [cytotoxic, single point] | 
CN(N=O)c1ccc(CC2CCc3ccccc32)cc1 (configuration not stated) | inconclusive: 29.1 µM [cytotoxic, single point] | 
CCCCCCn1c(CN2CCN(Cc3ccccc3)CC2)nc2c1c(=O)n(C)c(=O)n2C | active: 18.4 µM | 
CCN1CCN(c2oc(/C=C/c3ccccc3)nc2C#N)CC1 |  | inactive: 5.94%
Cc1cccc(OCCOc2ccccc2C=C(C#N)C#N)c1 | inconclusive: 20.6 µM [cytotoxic, single point] | 
CC(C)[C@H](NC(=O)c1ccco1)C(=O)Nc1ccc(N2CCCCCC2)cc1 |  | inactive: 3.66%
COc1ccc(-c2oc3ncnc(NCCN4CCOCC4)c3c2-c2ccc(OC)cc2)cc1 | inconclusive: 23.1 µM [cytotoxic, partial curve, poor fit] | 
